# Assay results from PubChem BioAssay AID1347076 (National Center for Advancing Translational Sciences (NCATS), 2019).
# Screen size: about 400,000 compounds; about 13,000 (3.2%) were called active. Inconclusive means that the source gave no clear call. Such entries were picked first, then a sample of the others. The call rests on the fitted dose curve; in most records, active means well fitted cell-killing curve with a large enough effect; inconclusive means small, poorly fitted or top-dose-only effect, or effect the other way; inactive means flat fitted curve, though single readings scatter. Potencies of inconclusive entries are doubtful fits and often do not repeat.
# Assay: qHTS assay for MDR1-selective chemotherapeutics: Primary screen using the drug-selected MDR subline cells KB-V1; further: nearly all actives have a fitted effect of over 60% in size
# Conditions: KB-V1 MDR cells viability, CellTiter-Glo, 72 h; activity change, negative = cytotoxicity: at 46.1 µM (top of the series)
# Procedure, shortened: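 qHTS viability screen in drug-selected KB-V1 MDR cells: 72 h compound treatment at 37 degrees C, ATP luminescence end point.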
# On the % scale 0 is the no-effect control and ±100 the full control effect; potency means the concentration at half of the fitted maximal effect.
Compound,Potency,"activity change, negative = cytotoxicity"
Cn1c(N)c(C#N)c(C#N)c1-c1ccccc1,"inconclusive: 29.1 µM [cytotoxic, partial curve, poor fit]",–
Cc1ccc(C(=O)c2cc(C)sc2NC(=O)CN2CCN(C(=O)c3ccco3)CC2)cc1,"inconclusive: 32.6 µM [cytotoxic, partial curve, poor fit]",–
Cc1cn([C@H]2C[C@H](O)[C@@H](/C=C/C(=O)NCCc3cccs3)O2)c(=O)[nH]c1=O,–,inactive: 8.41%
O=C(Cc1ccccc1)NCC(=O)N/N=C/c1ccc(Cl)cc1,–,inactive: 1.66%
CCC(C)n1c(=N)c(C(=O)NC2CCCCC2)cc2c(=O)n3cc(C)ccc3nc21 (stereo unspecified),"inconclusive: 0.58 µM [cytotoxic, full curve]",–
O=C(Nc1cccc(Cl)c1)c1ccc2c(c1)OCCO2,–,inactive: -16.7%
O=C(OCc1cc(=O)n2c(n1)sc1ccccc12)c1ccc(O)cc1,–,inactive: -5.49%
Cc1cccc(OCCCn2c(=O)sc3ccccc32)c1,"inconclusive: 1.46 µM [cytotoxic, full curve]",–
O=C(CSCc1ccccc1Br)N/N=C/c1ccc2c(c1)OCO2,"inconclusive: 20.6 µM [cytotoxic, single point]",–
Cc1c(CC(=O)N2C[C@H]3C[C@@H](C2)c2cccc(=O)n2C3)c(=O)oc2cc3occ(C(C)(C)C)c3cc12,"inconclusive: 16.4 µM [cytotoxic, partial curve, poor fit]",–
COc1ccc(CN(CC(=O)NCc2ccc3c(c2)OCO3)C(=O)c2csnn2)cc1,"inconclusive: 13 µM [cytotoxic, partial curve, poor fit]",–
CCOC(=O)C1CCCN(S(=O)(=O)c2cc(C(=O)OC)n(C)c2)C1 (stereo unspecified),"inconclusive: 29.1 µM [cytotoxic, single point]",–
Cc1ccc(C)c(N2CCN(S(=O)(=O)c3ccc(C4CCCCC4)cc3)CC2)c1,–,inactive: -9.39%
CCOC(=O)CN(C(=O)CSc1nnc(C)n1-c1ccccc1)c1ccccc1,"inconclusive: 32.6 µM [cytotoxic, single point]",–
O=C(COC(=O)CC1CCCC1)Nc1cccc(F)c1,"inconclusive: 29.1 µM [rising, single point]",–
CC(=O)N1N=C(c2cccs2)CC1c1ccco1 (stereo unspecified),"inconclusive: 23.1 µM [rising, single point]",–
COC(C/C=C/[C@H](O)[C@H](C)OCc1ccccc1)OC,"inconclusive: 29.1 µM [rising, single point]",–
O=C(Nc1cc(-c2nc3ccccc3o2)ccc1Cl)c1cc([N+](=O)[O-])ccc1N1CCOCC1,"inconclusive: 7.31 µM [rising, partial curve]",–
Cc1ccc(NC(=O)C(C)c2ccc(-c3ccccc3)c(F)c2)cc1 (stereo unspecified),–,inactive: -27.2%
O=C1CCC(C(=O)OCC(=O)Nc2ccc(Cl)cc2C(F)(F)F)=NN1,–,inactive: 2.56%
Cc1cc(C)c(NC(=O)CNC(=O)CN(C)Cc2ccc(Br)s2)c(C)c1,active: 16.4 µM,–
CCN1C/C(=C/c2cccc([N+](=O)[O-])c2)C(=O)/C(=C/c2cccc([N+](=O)[O-])c2)C1,"inconclusive: 2.06 µM [cytotoxic, partial curve, poor fit]",–
CCOc1ccccc1NC(=O)CSc1nc(-c2cccs2)cc(C(F)(F)F)n1,–,inactive: -3.38%
Cc1ccc(-c2nc3ccccc3s2)cc1S(=O)(=O)N1CCOCC1,–,inactive: 0%

Compound,Potency,"activity change, negative = cytotoxicity"
Cc1[nH]c2ccccc2c1SCCNC(=O)c1ccc(F)cc1,"inconclusive: 23.1 µM [cytotoxic, single point]",–
O=C(c1cccc(S(=O)(=O)N2CCOCC2)c1)N1CCC(Cc2ccccc2)CC1,"inconclusive: 23.1 µM [cytotoxic, single point]",–
Cc1nc2ccc(NC(=O)c3ccc(Cl)c(S(=O)(=O)N(C)c4ccccc4)c3)cc2s1,"inconclusive: 29.1 µM [cytotoxic, single point]",–
O=C1OC(N2C(=O)CC[C@H]2C(=O)Nc2ccc(Br)cc2F)c2ccccc21 (stereo partly specified),–,inactive: 3.16%
COc1ccc(N(C(=O)c2cc(OC)c(OC)c(OC)c2)S(=O)(=O)c2ccc(C)cc2)cc1,"inconclusive: 29.1 µM [cytotoxic, single point]",–
FC(F)(F)c1cc(-c2ccco2)nc(NCc2ccccc2)n1,"inconclusive: 18.4 µM [cytotoxic, single point]",–
CC(c1ccccc1)N(NC(=O)C(O)(c1ccccc1)c1ccccc1)C(=O)c1ccccc1 (stereo unspecified),"inconclusive: 5.17 µM [cytotoxic, full curve]",–
Cc1ccccc1CN1CCN(C(=O)[C@H]2O[C@@H](n3cnc4c(N)ncnc43)[C@H](O)[C@@H]2O)CC1,–,inactive: 3.34%
Cc1cc(=S)[nH]c2c(C)cccc12,–,inactive: 2.33%
Cc1cc2ccccn2c1C(=O)c1ccc(F)cc1,"inconclusive: 18.4 µM [cytotoxic, partial curve, poor fit]",–
Cc1c(NC(=O)c2nn3c(C(F)(F)F)cc(-c4ccccc4)nc3c2Br)c(=O)n(-c2ccccc2)n1C,"inconclusive: 1.84 µM [cytotoxic, full curve]",–
CN(C)C1(CNC(=O)COc2cccc(Cl)c2)CCCCC1,"inconclusive: 20.6 µM [cytotoxic, partial curve, poor fit]",–
O=C(Cc1cccc2ccccc12)N/N=C/c1ccc2cccc(O)c2n1,"inconclusive: 10.3 µM [cytotoxic, partial curve, poor fit]",–
Cc1nn(-c2cc(N3CCCCCC3)ccc2[N+](=O)[O-])c(=O)c2ccccc12,active: 3.66 µM,–
O=C(c1ccc(S(=O)(=O)Nc2ccc(F)cc2)cc1)N1CCN(C(=O)c2ccco2)CC1,–,inactive: -0.228%
COc1cccc(CSCC(=O)NCCc2ccccc2)c1OC,–,inactive: -7.82%
CCc1ccccc1NC(=O)CSc1nccn1C,–,inactive: -18.6%
Cc1c(N/N=C(\C#N)C(=O)c2ccc(Cl)cc2)c(=O)n(-c2ccccc2)n1C,–,inactive: -19.2%
CN1CCN(c2ncnc3c2[nH]c2ccc(F)cc23)CC1,–,inactive: -0.526%
CC1CCC(NC(=O)CN(C)S(=O)(=O)c2cnc[nH]2)CC1 (stereo unspecified),"inconclusive: 29.1 µM [rising, partial curve, poor fit]",–
Cc1cc2[nH]c3ccccc3c2c(C)n1,active: 16.4 µM,–
COc1ccc(C)cc1NC(=O)C(c1ccccc1)N1CCN(CC(=O)NC2CC2)CC1 (stereo unspecified),"inconclusive: 3.26 µM [cytotoxic, full curve, poor fit]",–
Nc1cccc(S(=O)(=O)c2cccc(N)c2)c1,–,inactive: 13.9%
COc1cc(-c2onc3ccc(Br)cc23)cc(OC)c1OC,active: 2.06 µM,–

# Five neighbouring entries out of the list so far:
Compound,Potency,"activity change, negative = cytotoxicity"
FC(F)(F)c1cc(-c2ccco2)nc(NCc2ccccc2)n1,"inconclusive: 18.4 µM [cytotoxic, single point]",–
CC(c1ccccc1)N(NC(=O)C(O)(c1ccccc1)c1ccccc1)C(=O)c1ccccc1 (stereo unspecified),"inconclusive: 5.17 µM [cytotoxic, full curve]",–
Cc1ccccc1CN1CCN(C(=O)[C@H]2O[C@@H](n3cnc4c(N)ncnc43)[C@H](O)[C@@H]2O)CC1,–,inactive: 3.34%
Cc1cc(=S)[nH]c2c(C)cccc12,–,inactive: 2.33%
Cc1cc2ccccn2c1C(=O)c1ccc(F)cc1,"inconclusive: 18.4 µM [cytotoxic, partial curve, poor fit]",–

# Carrying on.

Compound,Potency,"activity change, negative = cytotoxicity"
CCc1ccc(S(=O)(=O)c2nnn3c2nc(NCCC(C)C)c2cc(Cl)ccc23)cc1,–,inactive: -5.72%
CCOC(=O)c1c(NC(=O)CSc2nnc(CN3CCOCC3)n2C)sc2c1CCCC2,active: 5.8 µM,–
CN(Cc1nc(-c2ccncc2)no1)S(=O)(=O)c1ccc(Cl)cc1,active: 14.6 µM,–
CCOC(=O)C1CCCN(C(=O)Nc2cccc(Cl)c2)C1 (stereo unspecified),"inconclusive: 18.4 µM [cytotoxic, single point]",–
S=C(c1cn(Cc2ccc(Br)cc2)c2ccccc12)N1CCOCC1,"inconclusive: 9.2 µM [cytotoxic, partial curve]",–
CCOC(=O)c1c(C)[nH]c(C(=O)OCC(=O)N(C)CC(=O)Nc2ccccc2Cl)c1C,active: 13 µM,–
COc1ccc(S(=O)(=O)Nc2cccc(N(C)S(C)(=O)=O)c2)cc1C,active: 14.6 µM,–
CCCN(CCC)S(=O)(=O)c1ccc(C(=O)N2CCn3c4c(c5cc(C)ccc53)CCCC42)cc1 (stereo unspecified),–,inactive: -7.22%
C/C(=N/NS(=O)(=O)c1cc(C)ccc1C)c1c[nH]c2ccccc12,"inconclusive: 10.3 µM [cytotoxic, partial curve]",–
Cc1c(Cl)cccc1NC(=O)c1cc(-c2ccccc2O)n[nH]1,–,inactive: -2.9%
CCCCC1(Cc2ccc([N+](=O)[O-])cc2)C(=O)N(c2ccccc2)N(c2ccccc2)C1=O,active: 16.4 µM,–
CC(C)(C)c1ccc(CC(=O)N2CCC2(C)C(=O)NS(=O)(=O)c2ccc(F)cc2F)cc1 (stereo unspecified),–,inactive: 6.38%
O=C(CS(=O)(=O)c1ccccc1)Nc1ccc(Cl)cn1,–,inactive: 4.26%
CC(=O)c1ccc(N2CCN(C(=O)/C=C/c3ccc4ccccc4n3)CC2)cc1,"inconclusive: 32.6 µM [cytotoxic, single point]",–
CCc1ccc(Nc2cc(C(=O)NCCCN3CCOCC3)c3ccccc3n2)cc1,–,inactive: 4.23%
COc1ccc(CN(CCCN2CCOCC2)C(=O)Nc2ccccc2)cc1OC,active: 7.31 µM,–
CC1(C)C[C@H]2C3=CCC4[C@@]5(C)CC[C@H](O)[C@](C)(CO)C5CC[C@@]4(C)[C@]3(C)CC[C@@]2(C)[C@H](O)[C@@H]1O (stereo partly specified),"inconclusive: 11.6 µM [rising, partial curve, poor fit]",–
Cc1c(C)c(C)c(S(=O)(=O)N2CCC3(CC2)OCCO3)c(C)c1C,"inconclusive: 18.4 µM [cytotoxic, single point]",–
COc1ccc(-c2nc(SCC(=O)NCc3ccco3)c(-c3ccccc3)[nH]2)cc1OC,–,inactive: -6.16%
Cc1cc(N2C(=O)C(O)=C(C(=O)c3ccc(C)o3)C2c2cccc(Cl)c2)no1 (stereo unspecified),"inconclusive: 23.1 µM [cytotoxic, partial curve, poor fit]",–
CCOC(=O)c1cnc2c(cnn2C)c1NCCCn1ccnc1,"inconclusive: 20.6 µM [cytotoxic, single point]",–
COc1ccccc1-n1c(CNC(=O)c2ccco2)n[nH]c1=S,"inconclusive: 16.4 µM [rising, single point]",–
CCn1c(SC(C)C(=O)NCC2CCCO2)nc2ccccc21 (stereo unspecified),"inconclusive: 8.2 µM [cytotoxic, partial curve]",–
